Measurements taken from patent publication US8546421B1, “Oncogenic-RAS-signal dependent lethal compounds” (The Trustees of Columbia University in the City of New York, priority 2007, dated 2013).
For at least one compound, name, drawing or mass did not settle the structure.

Assays:
[1] = system: PARP-1 cleavage in BJ-TERT/LT/ST/RAS^V12 cells; assay: Western blot of PARP-1 cleavage upon compound treatment; format: cell-based, human; conditions: Western blot with anti-PARP-1 antibody
Protocol: 2×10^6 BJ-TERT/LT/ST/RAS^V12 cells were seeded in 10 cm dishes and treated with 1 μM staurosporine, 10 μg/mL erastin, 20 μg/mL Compound 3, and 1 μg/mL Compound 27 for 16 h. Both dying cells and live cells in each 10 cm dish were harvested and collected in the same 15 mL tubes by centrifuging cell suspension at 1,000 rpm for 5 min. Cell pellets were washed three times with PBS and cells were lysed in 200 μL of denaturing lysis buffer (50 mM HEPES KOH [pH 7.4], 40 mM NaCl, 2 mM EDTA, 1.5 mM Na3VO4, 50 mM NaF, 10 mM sodium pyrophosphate, 10 mM sodium β-glycerophosphate, 0.5% Triton X-100, and protease inhibitor tablet [Roche, cat.#11836170001]). Protein content was quantified using a Bio-Rad protein assay reagent (Bio-Rad, cat.#500-00006). Equal amounts of protein were resolved on SDS-polyacrylamide gels. The electrophoresed proteins were transblotted onto a PVDF membrane, blocked with 5% milk, and incubated with rabbit primary antibodies specific to: PARP (Santa Cruz, cat.#sc-7150), cleaved caspase-3 (Cell Signaling Technology, cat.#9661) overnight at 4° C. The membrane was then incubated in IRDye 800 goat anti-rabbit antibody (Li-cor Bioscience cat.#926-32211) at 1:3,000 dilutions for 45 min at room temperature. After washing off the unbound antibodies, membranes were scanned using the Odyssey™ Imaging System (Li-cor Bioscience).

[2] = system: 60 different human cancer cell lines (the NCI60 panel); assay: NCI60 anti-cancer screening, whole panel; format: cell-based
Protocol: NCI60 anti-cancer screening (“NCI60 test”) is a system that provides an opportunity to assess a drug candidate's potency and selectivity at a relatively early stage of drug discovery. […] Such compounds would be expected to kill sensitive cancer cells while having minimal effect on healthy cells in a predetermined concentration range. NCI60 anti-cancer screening makes use of 60 cancer cell lines from different human tissue origins. Cells are seeded on a 96-well plate, treated with lethal compounds in 5-point, 10-fold dilution series pattern starting at 100 μM (i.e. 10 nM, 100 nM, 1 μM, 10 μM, 100 μM) for 2 days, and measured for cell viability using sulforhodamine B dye. The optical densities of treated samples are determined using a plate reader and percent growth value is calculated by processing the optical density value.
The entire NCI60 test is replicated at least twice to ensure consistency of the data and to determine accurate GI50, TGI and LC50 values. The panel of results for each candidate compound in the NCI60 test is known as the “sensitivity profile.”

CCOc1ccccc1-n1c(C(C)N2CCN(C(=O)COc3ccc(Cl)cc3)CC2)nc2ccccc2c1=O (centres unmarked) [Erastin, reference compound]
PARP-1 cleavage / type of cell death [1]: activate a non-apoptotic pathway
potency / selectivity in NCI60 (in words) [2]: renal cancer cells are more sensitive
